{"sequences": {"note": "By UniProt entry, the sequences of proteins in these tests, tags left out.", "UniProt Q0JBA9, entry or part of it": "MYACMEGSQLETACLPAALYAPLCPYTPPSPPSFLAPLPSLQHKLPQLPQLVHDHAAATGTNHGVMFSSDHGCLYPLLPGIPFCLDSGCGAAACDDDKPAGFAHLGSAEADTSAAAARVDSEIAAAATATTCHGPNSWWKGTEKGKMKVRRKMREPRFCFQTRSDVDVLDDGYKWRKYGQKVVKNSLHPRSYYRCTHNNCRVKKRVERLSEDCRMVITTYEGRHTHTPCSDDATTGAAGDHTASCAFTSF"}, "source": "paper PMC7819943", "about": "“Rice protein-binding microarrays: a tool to detect cis-acting elements near promoter regions in rice”", "note": "This is one part of the list."}
{"molecular_target": "OsWRKY34 (Oryza sativa, UniProt Q0JBA9 1-250)", "assay": "protein-binding microarray (RPBM); PBS, 2% BSA, 51.3 ng/ul salmon testes DNA, 50 uM zinc acetate, 200 nM TF, 25 C, 1 h; high values mean tight binding", "details": "protein: recombinant; tags: N-terminal polyhistidine and DsRed monomer fusion (pET32a); label: CyDye5-dUTP incorporated in the synthesized complementary strand; 3' TTTTT single-stranded linker to array surface; dsDNA, one strand shown", "method_in_brief": "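Ni–NTA purification followed expression in E. coli BL21-CodonPlus of transcription factors fused N-terminally to a polyhistidine tag and DsRed. At 200 nM in PBS with 2% BSA, salmon testes DNA and 50 µM zinc acetate, the protein was incubated for 1 h at 25 °C with a custom Agilent array that had been primer-extended with Cy5-dUTP and blocked with 2% BSA. After washing, the array was read on an Axon 4000B scanner. The binding signal is per-feature fluorescence intensity in arbitrary units.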"}
{"sequence": "AAACACACTCAGTATCCGTCTCGCTCTCCTGCCTCGCCGCCGGAGTCACCTAGTGCAG", "binding signal": "10300 fluorescence intensity (a.u.)"}
{"sequence": "GATGAGTGGTCAAACATTGGTTAAAAAGTCAACGGCGTCACGGAGTCACCTAGTGCAG", "binding signal": "12800 fluorescence intensity (a.u.)"}
{"sequence": "ATTCCACTGGGTCGGGTCCCCTAAGCCGCCAGCGCGCGCGCGGAGTCACCTAGTGCAG", "binding signal": "9200 fluorescence intensity (a.u.)"}
{"sequence": "AAAACACGCCATGGTCATCGACGAACCGCCTGTCCATTTCCGGAGTCACCTAGTGCAG", "binding signal": "8370 fluorescence intensity (a.u.)"}
{"sequence": "CGCTCAATGACCGGTTGATGCCCTAGCCGCCAAACCTTGCCGGAGTCACCTAGTGCAG", "binding signal": "9300 fluorescence intensity (a.u.)"}
{"sequence": "GCTGTTCCTTTTCCAAACCGTACCGAACCTTTGGCATATTCGGAGTCACCTAGTGCAG", "binding signal": "10100 fluorescence intensity (a.u.)"}
{"sequence": "GCTTGTTGAGGTTTCACTGTATTCACATTTTTTAATTTGTCGGAGTCACCTAGTGCAG", "binding signal": "8670 fluorescence intensity (a.u.)"}
{"sequence": "TTATTTTGTGATTACTATCTCTCCGTTCATGTTTCTATCTCGGAGTCACCTAGTGCAG", "binding signal": "16400 fluorescence intensity (a.u.)"}
{"sequence": "TGGGTGGGACCTCACCACCGGGCTCGACCGCTACCTGACGCGGAGTCACCTAGTGCAG", "binding signal": "8250 fluorescence intensity (a.u.)"}
{"sequence": "CCGCTGATCCGGTCAGAAACCTCCAGTCTCTTGGCTCTGCCGGAGTCACCTAGTGCAG", "binding signal": "9220 fluorescence intensity (a.u.)"}
{"sequence": "GTCGATTCTCCACTCCTCATTTTTCTCACGATTTCCCCTTCGGAGTCACCTAGTGCAG", "binding signal": "9800 fluorescence intensity (a.u.)"}
{"sequence": "TTGTTTAGTAGTACCATTTATTGGTTGATTTTGATTGCTTCGGAGTCACCTAGTGCAG", "binding signal": "8120 fluorescence intensity (a.u.)"}
{"sequence": "TTCTTCCACTTAAGCTGAACTATATATTCAATTCAATATACGGAGTCACCTAGTGCAG", "binding signal": "8580 fluorescence intensity (a.u.)"}
{"sequence": "ACTCTTATTGTCTTCACGTTGTCTTATCAGCCACGATCAACGGAGTCACCTAGTGCAG", "binding signal": "17900 fluorescence intensity (a.u.)"}
{"sequence": "TTTCGCCGCGTCGCGCGCATTGTCCGCCATTGCTTTCGTTCGGAGTCACCTAGTGCAG", "binding signal": "9530 fluorescence intensity (a.u.)"}
{"sequence": "CTATTGCATTACTGATTAGACCATTTATTTTTAATTATTTCGGAGTCACCTAGTGCAG", "binding signal": "9540 fluorescence intensity (a.u.)"}
{"sequence": "AACACAAATTCGAATTTTTTTCCTTTATTTCTCTATTTTTCGGAGTCACCTAGTGCAG", "binding signal": "12700 fluorescence intensity (a.u.)"}
{"sequence": "TATTCTGACCTCCCGCCTATGCTTTGTTTTCCTTGCTAGCCGGAGTCACCTAGTGCAG", "binding signal": "8060 fluorescence intensity (a.u.)"}
{"sequence": "AGTTGTTAGAGTCTTTTGTTGTGTTTAACAGTGGTAAGAACGGAGTCACCTAGTGCAG", "binding signal": "8430 fluorescence intensity (a.u.)"}
{"sequence": "ATCACCCCACCATTGCCTCGACGATCTCCTCTCTCGGCGCCGGAGTCACCTAGTGCAG", "binding signal": "11100 fluorescence intensity (a.u.)"}
{"sequence": "ACTTATTATCTTACATGATCATATGCTTCTGTTCCCTTTTCGGAGTCACCTAGTGCAG", "binding signal": "9320 fluorescence intensity (a.u.)"}
{"sequence": "CTTCTGCCGCGCCACCAACCATCCATCGCTGACGCTTCCACGGAGTCACCTAGTGCAG", "binding signal": "10500 fluorescence intensity (a.u.)"}
{"sequence": "ATCAACACATTCGATCCAACTCTTTTATAATCTTTAACTGCGGAGTCACCTAGTGCAG", "binding signal": "8520 fluorescence intensity (a.u.)"}
{"sequence": "GGATACTTTGTTTTGTTGGGCCTAAATGGTAAGATGGGCTCGGAGTCACCTAGTGCAG", "binding signal": "8240 fluorescence intensity (a.u.)"}
{"sequence": "CTCCGTATGTACCTTTATCACACCGGCGGTTACAACAGGCCGGAGTCACCTAGTGCAG", "binding signal": "9200 fluorescence intensity (a.u.)"}
{"sequence": "CCGAATCCGGCCACCCCGCCGCCTCCACGCGCATCACCGCCGGAGTCACCTAGTGCAG", "binding signal": "11100 fluorescence intensity (a.u.)"}
{"sequence": "ACACATACTACCAATTAGACCGGCTCACACCAACCATTAACGGAGTCACCTAGTGCAG", "binding signal": "10600 fluorescence intensity (a.u.)"}
{"sequence": "CGTCATCCGTGTATGAGTCGGTTTTTAAGTTCGTTTGCTTCGGAGTCACCTAGTGCAG", "binding signal": "8170 fluorescence intensity (a.u.)"}
{"sequence": "GTCAAAGTTGTTTTTTGGAGACCGTGCCCTTGTCCAAAACCGGAGTCACCTAGTGCAG", "binding signal": "8230 fluorescence intensity (a.u.)"}
{"sequence": "CTAGTGTTCACCTCTCTTCTGCTTCATCTCCTCGATCCATCGGAGTCACCTAGTGCAG", "binding signal": "11900 fluorescence intensity (a.u.)"}
{"sequence": "TTAACTAAGCTGTTGTCTTCTCTGCCATCGTTACCAAGTTCGGAGTCACCTAGTGCAG", "binding signal": "10200 fluorescence intensity (a.u.)"}
{"sequence": "AATCGCTTTCTCTCTCTTCTTCCTTGCTCTCTCATACAACCGGAGTCACCTAGTGCAG", "binding signal": "10200 fluorescence intensity (a.u.)"}
{"sequence": "ATTTGTTTACCAGCATATATCGATCTTCAGTTAAGTTTGACGGAGTCACCTAGTGCAG", "binding signal": "9500 fluorescence intensity (a.u.)"}
{"sequence": "TATCTTTCCTTTCTGGTCTGTGTTTTCATGTTCCCTTCTACGGAGTCACCTAGTGCAG", "binding signal": "9930 fluorescence intensity (a.u.)"}
{"sequence": "AGCATATCCATCTCCGATTCACAGATTCTTTCTGGAGATCCGGAGTCACCTAGTGCAG", "binding signal": "8050 fluorescence intensity (a.u.)"}
{"sequence": "CGCCATGTCAGCTTCATCCTCGCCACGTCCTCCCATGTCACGGAGTCACCTAGTGCAG", "binding signal": "10300 fluorescence intensity (a.u.)"}
{"sequence": "CATTAATTTTTCTTGCGAGTTTTATTTTTTGTTTTCTATTCGGAGTCACCTAGTGCAG", "binding signal": "11600 fluorescence intensity (a.u.)"}
{"sequence": "CTTGCTATAAATCTGTAGTTCGCTGCTCTTCTTTTTCCTTCGGAGTCACCTAGTGCAG", "binding signal": "10300 fluorescence intensity (a.u.)"}
{"sequence": "TTCTCACATGTTTGACCATTCGTCTTATTAAAAATTTTATCGGAGTCACCTAGTGCAG", "binding signal": "11100 fluorescence intensity (a.u.)"}
{"sequence": "ACGTAAATAGCAAAAGTTTTTATCAGCTTTTACCATTTTGCGGAGTCACCTAGTGCAG", "binding signal": "8200 fluorescence intensity (a.u.)"}
{"sequence": "AGTGCAGAGACTTGTTAATGATTGTAATATTCCTACTACTCGGAGTCACCTAGTGCAG", "binding signal": "8760 fluorescence intensity (a.u.)"}
{"sequence": "GATTCCTGAGCTGTACCGATATTCTTGGCCCTGTTCCTATCGGAGTCACCTAGTGCAG", "binding signal": "11300 fluorescence intensity (a.u.)"}
